In publication PMC10721899, “The bactericidal and antibiofilm effects of a lysine-substituted hybrid peptide, CM-10K14K, on biofilm-forming Staphylococcus epidermidis” (Scientific Reports, 2023):
Ends that are not written are not given here.

System: human red blood cells (hRBCs)
Experiment: Hemolytic activity
Type: cell-based
Conditions: HC50 (hRBCs) / MIC (S. epidermidis)
Procedure: The quantity of hemoglobin released by treatment was used as a measure of a peptide’s hemolytic activity against human red blood cells (hRBCs)[23]. Venous blood was collected from a healthy volunteer in plastic blood collection tubes with lithium heparin (BD Vacutainer™, USA) and centrifuged at 2000×g for 5 min to separate the plasma and buffy coat. The hRBCs obtained were washed at least three times and diluted to 4% (vol/vol) in phosphate-buffered saline (PBS; Caisson Laboratories, USA). The same volume of the hRBC suspension (50 µL) was incubated with twofold, serially diluted concentrations (0.98–250 μg/mL) of peptide dissolved in PBS for 1 h at 37 °C. The hRBCs incubated in 0.1% Triton X-100 and PBS were used as positive (100% hemolysis) and negative (0% hemolysis) controls, respectively. The release of hemoglobin into the supernatants was monitored by measurement of absorbance at 405 nm using a Multiskan SkyHigh microplate reader (Thermo Scientific™, Singapore). The percentage of hemolysis was calculated as previously described.

Row | Substance | TI, therapeutic index (ratio of HC50 to MIC)
1 | VWKLFKKIGAVLKKL-NH2 [CM-1V14K, VWKLFKKIGAVLKKL-NH2] | 16.86
2 | KWKLFKKIGKVLKVL-NH2 [CM-10K, KWKLFKKIGKVLKVL-NH2] | 21.94
3 | KWKLFKKIGAVLKVLA-NH2 [CM-A, KWKLFKKIGAVLKVLA-NH2] | 5.45
4 | KWKLFKKIGKVLKKL-NH2 [CM-10K14K, KWKLFKKIGKVLKKL-NH2] | 143.71
5 | H-KWKLFKKIGAVLKVL-NH2 [C(1–7)M(2–9), KWKLFKKIGAVLKVL-NH2, reference compound] | 11.38
6 | VWKLFKKIGKVLKKL-NH2 [CM-1V10K14K, VWKLFKKIGKVLKKL-NH2] | 30.41
